Library screen at single concentrations

T. brucei: 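Whole-parasite assay of Trypanosoma brucei over 72 hours; the read-out is not stated. Concentration: 30 µM. Higher reads as stronger inhibition (inferred: compounds with an IC50 in retests scored well above the rest). Values scatter widely below zero; nearly all retest evidence comes from the higher of the two concentrations used. Of about 64,000 compounds tested this way, about 940 (1.5%) reached 50% or more in at least one test.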
Toxoplasma: 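Assay of Toxoplasma gondii numbers, read through their beta-galactosidase reporter with a colour substrate. Concentration: 10 µM. The record gives no direction; the compounds picked for IC50 retests had high values, so higher reads as fewer parasites. Size under these conditions: about 67,000 compounds, about 260 of them at 50% or above in at least one test.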

The filed quantity is “Percent Effect” (%).
The controls that fix the scale are not given in the record; negative values are as filed.
This is an unselected part of the compounds tested.

With [H][C@@]12CCCC[C@]1(O)CCN(C(=O)c1ccc3c(ccn3C)c1)C2 the screen gave T. brucei: -27.95%; Toxoplasma: -4.61%. CC(C)COCC1CN(Cc2ccco2)Cc2ncn(C)c21 (centres unmarked) gave T. brucei: -16.71%; Toxoplasma: 14.88%. Cc1cnc(N)c(C(=O)C2CCN(C(=O)c3cnc(C)nc3C)CC2)c1 read T. brucei: -7.859%; Toxoplasma: -9.964%. For Cc1c(C2c3nc[nH]c3CCN2CCOCc2ccccc2)cnn1C (centres unmarked) the result was T. brucei: -26%; Toxoplasma: -2.488%.

O=C(CSC1=NS(=O)(=O)c2cc(Cl)ccc2N1)c1ccccc1 gave T. brucei: 10.67%; Toxoplasma: 6.133%. For O=S1(=O)CCC(n2cc(C3=CCN(CCn4cccc4)CC3)cn2)C1 (centres unmarked) the result was T. brucei: -118.7%; Toxoplasma: 1.082%. Cc1noc(C2CCC3(CCN(C(=O)c4cc(C5CC5)on4)CC3)O2)n1 (centres unmarked) read T. brucei: -78.81%; Toxoplasma: 6.238%. Cc1noc(C)c1-c1cc(CC2CCN(C(=O)c3cc[nH]n3)C2)ncn1 (centres unmarked) read T. brucei: 1.302%; Toxoplasma: -4.432%.

Result for Cc1cc(N2CCCC2)nc(N(C)CCO)c1C#N was T. brucei: 15.06%; Toxoplasma: 10.02%. CC(Cc1ccccc1F)NC(=O)CCc1nc(-c2nnc[nH]2)no1 (centres unmarked) gave T. brucei: -8.28%; Toxoplasma: -1.311%. For O=C(NCc1ccco1)Nc1ccc2nc(N3CCOCC3)oc2c1 the result was T. brucei: -11.58%; Toxoplasma: 3.106%. Result for O=C(CCC(=O)NCc1cccc(Br)c1)NCCN1CCCC1 was T. brucei: -69.35%; Toxoplasma: 6.699%.

For [H][C@@]12COC[C@]1(COCC1CC1)CN(S(=O)(=O)c1cccc(F)c1)C2 the result was T. brucei: -52.61%; Toxoplasma: 16.88%. O=C(O)C(F)(F)F.[H][C@@]12COC[C@]1(CN(C)C)CN(C(=O)CCc1ccccc1)C2 read T. brucei: 16.49%; Toxoplasma: 1.843%. With [H][C@@]12CCN(S(=O)(=O)CCC)[C@]1([H])CC[C@@H](c1nnc(C)o1)O2 the screen gave T. brucei: -18.24%; Toxoplasma: 21.29%. For CCN(CCCc1ccccc1C)S(C)(=O)=O the result was T. brucei: -28.71%; Toxoplasma: -2.544%.

For COc1ccnc(N2CCN(C(=O)CN3CCOCC3)CC2)n1 the result was T. brucei: -4.701%; Toxoplasma: -50.69%. With CN(Cc1ccncc1)C1COC2(CCN(Cc3ccsc3)CC2)C1.O=C(O)C(F)(F)F.O=C(O)C(F)(F)F.O=C(O)C(F)(F)F (centres unmarked) the screen gave T. brucei: 11.15%; Toxoplasma: 0.2973%. With CN(Cc1ccncn1)c1nccc(CCC(F)(F)F)n1 the screen gave T. brucei: -86.84%; Toxoplasma: -1.063%. For CN(C(=O)Cn1nnnc1C(C)(C)C)c1ccccc1 the result was T. brucei: -18.49%; Toxoplasma: 16.02%.

Result for CCCNC(=O)CCC(=O)n1nc(C)c2ccccc21 was T. brucei: -4.915%; Toxoplasma: 12.38%. For O=C(CC1CCN(c2ncnc3ccccc23)CC1)N1CCCC1 the result was T. brucei: -23.37%; Toxoplasma: 4.063%. For CCOCC(=O)N1CCC2(CC1)CN(Cc1cccnc1)C(=O)CO2 the result was T. brucei: -75.7%; Toxoplasma: -24.71%. Result for N#CC1CCCN(c2nc(-c3ccccc3)nc3c2CCNCC3)C1 (centres unmarked) was T. brucei: -29%; Toxoplasma: 11.68%.

Result for O=C(Nc1cccc(F)c1)N1CCN(Cc2noc(C3CC3)n2)CC1 was T. brucei: 7.75%; Toxoplasma: 3.19%. Result for Cc1nn(C)cc1CN(C)C(=O)c1cnccn1 was Toxoplasma: 10.86%. Cc1cc(C(=O)NCCCn2nccc2C2CC2)c(=O)[nH]c1C read T. brucei: -21.84%; Toxoplasma: -3.845%. [H][C@]12CC[C@]([H])(CN(C(=O)c3c[nH]c(=O)c(Cl)c3)C1)N(Cc1ccccc1)C2 gave T. brucei: -4.349%; Toxoplasma: -0.3356%.

Cc1cc(C(=O)N2CCS(=O)(=O)CC2)c(C)o1 read T. brucei: -6.712%; Toxoplasma: -11.85%. For O=C(O)C(F)(F)F.O=C(O)C(F)(F)F.O=C(O)C(F)(F)F.[H][C@]12CCN(Cc3ccc(C)s3)CC[C@]1([H])N(Cc1ccncc1)CCO2 the result was T. brucei: 37.07%; Toxoplasma: -9.033%. For NC(=O)c1cnn2c1NCC(CNCCCOc1ccccc1F)C2 (centres unmarked) the result was T. brucei: -0.2088%; Toxoplasma: -18.77%. For O=C(NCc1ccnc(OCC(F)(F)F)c1)NCC1CCOC1 (centres unmarked) the result was Toxoplasma: -4.413%.

O=C(O)C(F)(F)F.[H][C@]12CC[C@@]3(N=C(CC)N(C)C3=O)[C@@]1([H])CN(Cc1ccc(Cl)cc1)C2 read Toxoplasma: -3.174%. Result for NC(=O)c1cccc(-c2cnc(C3CCCNC3)cn2)c1 (centres unmarked) was T. brucei: -16.46%; Toxoplasma: 6.535%. For Cc1ccc(C)c(CSc2nnc(C(N)Cc3ccccc3)o2)c1.Cl (centres unmarked) the result was T. brucei: -25.61%. Cc1nc(N2CCOCC2)nc2c1CN(C(=O)C(C)C)CC2 read T. brucei: -74.73%; Toxoplasma: -12.23%.

For CSc1ccc(-c2nc(CN3C[C@@H](C)NC[C@@H]3C)c(C)o2)cc1 the result was T. brucei: 65.6%; Toxoplasma: -4.326%. For CCc1nc(C2CCCN2C(=O)c2csc(COC)n2)no1 (centres unmarked) the result was T. brucei: -19.45%; Toxoplasma: -1.977%. Result for O=C(Cc1ccc2c(c1)CCC2)N1CCN(c2cnccn2)CC1 was T. brucei: 8.454%; Toxoplasma: 1.691%. For CN(C)c1ncccc1C(=O)N1CCCC1Cn1cccn1 (centres unmarked) the result was T. brucei: -18.31%; Toxoplasma: -14.14%.

CC(C)(C)C(=O)N1CC(=O)N(Cc2ccco2)CC(O)C1 (centres unmarked) read T. brucei: 8.4%; Toxoplasma: -10.93%. N#Cc1cccc(NC(=O)N[C@H](CO)Cc2ccc(O)cc2)c1 gave T. brucei: -47.82%; Toxoplasma: -3.215%. Cn1ccc2cc(CC3COCCN(C(=O)c4cccnc4)C3)ccc21 (centres unmarked) read T. brucei: -10.88%; Toxoplasma: 18.47%. Result for CC(C)c1noc(CS(=O)(=O)CC(=O)NCc2cccs2)n1 was T. brucei: -26.7%; Toxoplasma: -3.875%.

Repeated from the top, 4 entries:

{"compound": "[H][C@@]12CCCC[C@]1(O)CCN(C(=O)c1ccc3c(ccn3C)c1)C2", "T. brucei": -27.95, "Toxoplasma": -4.61}
{"compound": "CC(C)COCC1CN(Cc2ccco2)Cc2ncn(C)c21", "stereo": "centres unmarked", "T. brucei": -16.71, "Toxoplasma": 14.88}
{"compound": "Cc1cnc(N)c(C(=O)C2CCN(C(=O)c3cnc(C)nc3C)CC2)c1", "T. brucei": -7.859, "Toxoplasma": -9.964}
{"compound": "Cc1c(C2c3nc[nH]c3CCN2CCOCc2ccccc2)cnn1C", "stereo": "centres unmarked", "T. brucei": -26, "Toxoplasma": -2.488}

Source: ChEMBL document CHEMBL3988442, “University of Dundee, Small-Polar-MMV Screening Library” (2021).